Measurements reported in PubChem BioAssay AID1224826 (NIAID, 2016).

Purpose: 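Knock-downs that raise or lower Tnf reporter signal after endotoxin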 (primary screen)
Cells: RAW264.7 G9 macrophages from mouse bearing reporters for p65 (GFP) and the Tnf promoter (mCherry)
Reagents: siRNA pool against mouse genes, 100 nM
Duration: 16 h of LPS stimulation, after 2 days of siRNA transfection
Challenge: bacterial lipopolysaccharide (Salmonella minnesota R595), 10 ng/ml
Read-out: 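Nuclear mCherry signal of the Tnf promoter reporter measured by imaging after background removal, scaled to each plate median and turned into robust z-scores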
Direction: Tnf reporter robust z-score: higher = stronger Tnf promoter reporter signal after LPS
Active means: 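Called active when robust z-score is at most -1.3, matching the median of the Tlr4 knock-down control, or over 3; control wells and wells with under 50 cells never active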
Meaning of the calls: active = Tnf reporter clearly lowered or raised; inactive = no clear change in Tnf reporter
Shown is a random part of about 17,000 deposited reagents. Of all reagents, about 1,110 (6.6%) were called active. 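Active means lowered or raised reporter signal; replicate intensities are raw and not normalised per plate.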 Reagents against one gene are numbered here. Not all columns of the deposit are shown. Reagent sequences are not shown.

{"gene knocked down":"Dap (death-associated protein)","reagent no.":1,"Tnf reporter robust z-score":-0.5,"fewer than 50 cells in well":"enough cells in well","outcome":"inactive"}
{"gene knocked down":"Csn1s1 (casein alpha s1)","reagent no.":1,"Tnf reporter robust z-score":2.38,"fewer than 50 cells in well":"enough cells in well","outcome":"inactive"}
{"gene knocked down":"Rab11b (RAB11B, member RAS oncogene family)","reagent no.":1,"Tnf reporter robust z-score":-0.3,"fewer than 50 cells in well":"enough cells in well","outcome":"inactive"}
{"gene knocked down":"Rab11b (RAB11B, member RAS oncogene family)","reagent no.":2,"Tnf reporter robust z-score":3.38,"fewer than 50 cells in well":"enough cells in well","outcome":"active"}
{"gene knocked down":"Slc5a4b","reagent no.":1,"Tnf reporter robust z-score":-0.37,"fewer than 50 cells in well":"enough cells in well","outcome":"inactive"}
{"gene knocked down":"Or10d5j (olfactory receptor family 10 subfamily D member 5J)","reagent no.":1,"Tnf reporter robust z-score":-0.14,"fewer than 50 cells in well":"enough cells in well","outcome":"inactive"}
{"gene knocked down":"Sprr2i (small proline-rich protein 2I)","reagent no.":1,"Tnf reporter robust z-score":1.92,"fewer than 50 cells in well":"enough cells in well","outcome":"inactive"}
{"gene knocked down":"Mettl3","reagent no.":1,"Tnf reporter robust z-score":-0.63,"fewer than 50 cells in well":"enough cells in well","outcome":"inactive"}

Records above whose target name starts with S or s (2):
{"gene knocked down":"Slc5a4b","reagent no.":1,"Tnf reporter robust z-score":-0.37,"fewer than 50 cells in well":"enough cells in well","outcome":"inactive"}
{"gene knocked down":"Sprr2i (small proline-rich protein 2I)","reagent no.":1,"Tnf reporter robust z-score":1.92,"fewer than 50 cells in well":"enough cells in well","outcome":"inactive"}

The results go on.
{"gene knocked down":"Plscr4 (phospholipid scramblase 4)","reagent no.":1,"Tnf reporter robust z-score":-0.81,"fewer than 50 cells in well":"enough cells in well","outcome":"inactive"}
{"gene knocked down":"Myoz1 (myozenin 1)","reagent no.":1,"Tnf reporter robust z-score":-1.07,"fewer than 50 cells in well":"enough cells in well","outcome":"inactive"}
{"gene knocked down":"Mef2d (myocyte enhancer factor 2D)","reagent no.":1,"Tnf reporter robust z-score":-0.3,"fewer than 50 cells in well":"enough cells in well","outcome":"inactive"}
{"gene knocked down":"Zcchc10 (zinc finger, CCHC domain containing 10)","reagent no.":1,"Tnf reporter robust z-score":-0.26,"fewer than 50 cells in well":"enough cells in well","outcome":"inactive"}
